The results are deposited in PubChem (AID912; NCATS, 2007).

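A cell-based FRET test of anthrax lethal toxin entry, tracked through the 460 nm emission signal; the cell line is not named here.
Each compound was tested as a concentration series from about 0.0005 to 40 µM.
The number is the fitted AC50 of the 460 nm signal alone; lower values mean a more potent effect. A falling signal goes with compounds filed as inhibitors or cytotoxic, a rising one with activators or fluorescent compounds (inferred from the filed classes).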

Values are in nM.
Common to all entries: measured here: 460 nm channel.
Part of the compounds only, not a random draw; the main read-out is not listed here.
Potencies fitted to partial, single-point or poorly fitting curves are rough.
The first word of each remark tells which way the curve ran; it can be opposite to the aim of the assay.

| # | structure | AC50 (nM) | remark |
|---|---|---|---|
| 1 | `O=c1cc(-c2ccccc2)oc2cc(O[C@H]3O[C@H](CO)[C@@H](O)[C@H](O)[C@@H]3O)c(O)c(O)c12` | 2.512 | falling, full curve, poor fit |
| 2 | `CN1/C(=C/C(=O)C2CCC2)Sc2ccccc21` | 398.1 | falling, single point |
| 3 | `CN(C)c1ccc(/C=C/C(O)=C2/C(=O)N(C)C3(C)CC2c2ccccc2O3)cc1` (stereo not given) | 3981 | rising, partial curve |
| 4 | `O=C1C2=CC[C@@H]3C(=O)N(c4ccc(F)cc4F)C(=O)[C@H]3[C@H]2[C@H](O)[C@H]2O[C@H]12` | 1259 | rising, partial curve |
| 5 | `N#Cc1c(-c2cccs2)cc(-c2cccnc2)nc1N` | 25118 | rising, single point |
| 6 | `Cc1cccc(-n2nnnc2SCC(=O)c2cc(C)n(Cc3ccco3)c2C)c1` | 12589 | falling, partial curve |
| 7 | `C#CCOC(=O)C1=CCCN(C)C1` | 1.585 | rising, full curve, poor fit |
| 8 | `Cc1c(C(=O)OCC(=O)N2c3ccccc3CC2C)oc2ccccc12` (stereo not given) | 251.2 | falling, full curve, poor fit |
| 9 | `Cc1ccc(NC(=O)c2cc(S(=O)(=O)N3CCOCC3)ccc2F)c(C)c1` | 25118 | rising, single point |
| 10 | `CC(C)NC(=O)N1CCC2(CC1)CCN(S(C)(=O)=O)CC2` | 1259 | rising, partial curve |
| 11 | `Cc1cccc(Cn2c(=O)n(Cc3ccco3)c(=O)c3ccccc32)c1` | 3162 | falling, partial curve |
| 12 | `Cc1ccc(C(=O)[C@@H]2[C@@H]3[C@@H](C(=O)[C@@H]4OC[C@H]3O4)[C@@H]3C=Cc4ccccc4N23)cc1` | 31622 | falling, single point |
| 13 | `O=C(COc1ccccc1)N1CCN(c2nnc(-c3ccccc3)c3ccccc23)CC1` | 1000 | rising, full curve, poor fit |
| 14 | `COC(=O)c1c(NC(=O)CN2CCC(C(N)=O)CC2)c2c(C)cccc2n1C` | 3162 | rising, single point |
| 15 | `CCOC(=O)c1cc(NC(=O)C2CCCO2)cc(C(=O)OCC)c1` (stereo not given) | 125.9 | falling, full curve |
| 16 | `CCNc1ncc2nc(CCc3ccccc3)c(=O)n(-c3ccccc3)c2n1` | 6310 | rising, full curve, poor fit |
| 17 | `COc1cccc(Cn2c(=O)c(-c3cc(F)cc(F)c3)nc3cnc(N4CCN(C)CC4)nc32)c1` | 1259 | rising, full curve |
| 18 | `O=C(CCNS(=O)(=O)c1ccc(Cl)cc1)NCc1cccnc1` | 3981 | rising, partial curve |
| 19 | `COc1cccc(-c2cc(C(=O)N3CCc4ccccc4C3)no2)c1` | 12589 | falling, partial curve |
| 20 | `O=C(CC1CCCCC1)NCCCN1CCOCC1` | 25118 | rising, single point |
| 21 | `CC(C)CC(OC(=O)c1cccs1)C(=O)NCC1CCCO1` (stereo not given) | 19952 | rising, single point |
| 22 | `CCCC[C@@H]1C[C@H]1C(NC(=O)c1ccc(-c2ccccc2)cc1)c1ccc(-c2ccccc2)cc1` (stereo not given in full) | 5012 | falling, single point |
| 23 | `Cc1csc2nc(CSc3nc4ccccc4o3)c(Br)n12` | 12589 | falling, partial curve |
| 24 | `Cc1ccc(CNC(=O)CS(=O)Cc2nc(-c3ccccc3C)oc2C)cc1` (stereo not given) | 25118 | rising, single point |
| 25 | `CC(C)(C)OC(=O)N1CCC[C@H]1C(=O)NCC1CCC(C(=O)O)CC1` (stereo not given in full) | 25.12 | falling, full curve |
| 26 | `O=C(c1ccco1)N1C(=O)c2cccc3c(S(=O)(=O)N4CCCC4)ccc1c23` | 12589 | rising, single point |
| 27 | `O=C(Cn1nc(C(F)(F)F)c2c1CCCC2)NC1CCCC1` | 3162 | falling, full curve, poor fit |
| 28 | `CC(Oc1ccccc1)C(=O)NC1CC(C)(C)NC(C)(C)C1` (stereo not given) | 3162 | rising, partial curve |
| 29 | `COc1ccc(-c2noc(CCC(=O)N3CCN(c4cccc(C(F)(F)F)c4)CC3)n2)cc1` | 12589 | falling, single point |
| 30 | `O=c1c2c(-c3ccco3)csc2nc(SCc2cn3cccnc3n2)n1-c1ccccc1` | 3981 | rising, full curve, poor fit |
| 31 | `CCn1c(SCC(=O)c2cccs2)nnc1-c1cccs1` | 19952 | rising, single point |
| 32 | `O=C1CCCN1CCCn1cnc2c([nH]c3ccc(F)cc32)c1=O` | 5012 | falling, single point |
| 33 | `CCOC(=O)c1cc2c(=O)n3ccccc3nc2n(CCCOC)c1=NC(=O)C(C)(C)C` | 12589 | rising, single point |
| 34 | `CC1CCCN(Cc2nc3c(c(=O)n(C)c(=O)n3C)n2CC(=O)c2ccccc2)C1` (stereo not given) | 31622 | falling, single point |
| 35 | `CCn1c2ccccc2c2cc(Nc3cc(C)nc4ncnn34)ccc21` | 10000 | falling, partial curve |
| 36 | `CCOCC(=O)Nc1nnc(Cc2ccc(OC)c(OC)c2)s1` | 15848 | falling, single point |
| 37 | `c1ccc2c(NC3CC3)nc(-c3ccoc3)nc2c1` | 3981 | falling, full curve |
| 38 | `CC1(C(=O)NCc2cc(F)cc(C(F)(F)F)c2)C=CC2(CCCCC2)N1C(=O)c1ccccc1` (stereo not given) | 12589 | falling, partial curve |
| 39 | `CC/C(=C1/C(=O)CC(C)(C)C(C(=O)OC)C1=O)N1CCCC1` (stereo not given) | 10000 | rising, single point |
| 40 | `COC(=O)[C@@]1(Cc2ccc(F)cc2)[C@H]2c3cc(C(=O)N4CCCC4)n(CCc4ccc(OC)c(Br)c4)c3C[C@H]2CN1C(=O)c1ccccc1` | 3162 | falling, full curve |
| 41 | `CCOC(=O)C1Cn2c(nc3c(c2=O)C2(CCCC2)Cc2ccccc2-3)S1` (stereo not given) | 10000 | falling, partial curve |
| 42 | `O=C(CCC1N=C2c3ccccc3N=C(SCc3cccc(Cl)c3)N2C1=O)NCc1ccco1` (stereo not given) | 31622 | rising, single point |
| 43 | `CCOC(=O)CCNC(=O)c1ccccc1Br` | 25118 | falling, single point |
| 44 | `CC(=Nc1ccc(O)cc1)c1sc2ccccc2c1O` | 12589 | falling, single point |
| 45 | `CCCC(C)C1C(C#N)=C(N)Oc2c1c(=O)oc1ccccc21` (stereo not given) | 2512 | rising, full curve, poor fit |
| 46 | `COc1cccc(NC(=O)c2ccc(S(=O)(=O)N3CCCCC3)cc2)c1` | 31622 | falling, single point |
| 47 | `COC(=O)c1ccc(C2C(C(=O)OCC(C)C)=C(C)N=C3SCCC(=O)N32)cc1` (stereo not given) | 12589 | rising, single point |
| 48 | `CCOC(=O)c1cc(-c2ccc(C)o2)nn1CCC#N` | 10000 | falling, partial curve |
| 49 | `CC(=O)OCC(=O)[C@@]1(O)CC[C@@H]2[C@H]3CCC4=CC(=O)C=C[C@]4(C)[C@]3(F)[C@@H](O)C[C@@]21C` | 79.43 | falling, full curve, poor fit |

For reference, 5 entries once more:

With CCCC[C@@H]1C[C@H]1C(NC(=O)c1ccc(-c2ccccc2)cc1)c1ccc(-c2ccccc2)cc1 (stereo not given in full) the assay gave AC50 5012 nM (falling, single point).
With CCNc1ncc2nc(CCc3ccccc3)c(=O)n(-c3ccccc3)c2n1 the assay gave AC50 6310 nM (rising, full curve, poor fit).
With COc1cccc(-c2cc(C(=O)N3CCc4ccccc4C3)no2)c1 the assay gave AC50 12589 nM (falling, partial curve).
With Cc1cccc(Cn2c(=O)n(Cc3ccco3)c(=O)c3ccccc32)c1 the assay gave AC50 3162 nM (falling, partial curve).
With CC(C)CC(OC(=O)c1cccs1)C(=O)NCC1CCCO1 (stereo not given) the assay gave AC50 19952 nM (rising, single point).